From PubChem BioAssay record AID504749 (NCATS, 2011).

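Malaria parasite (P. falciparum) lines kept in red blood cells; parasite DNA is measured by SYBR Green fluorescence after lysis, 72 h after compound addition.
Each compound was titrated across a series from about 0.000037 to 29 µM.
The number is the fitted AC50, the concentration giving a half-maximal change in signal; a lower value means higher potency, whether the curve shows a decrease or an increase.
Calls follow the curve class and fit quality: every row here is inconclusive, covering signal-raising curves and weak, poorly fitted, partial or highest-dose-only inhibition curves.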

Values are in nM.
Every entry below has the call inconclusive.
Only part of the assay is shown, chiefly results filed as inconclusive.
A potency from a partial, single-point or poor curve is only a rough figure.
Some entries filed as inconclusive have a full curve.

SMILES: O=C(OC1C[C@H]2CC[C@@H](C1)[N+]21CCCC1)C(O)(c1ccccc1)c1ccccc1 (some centres unmarked)
setting: CP237
potency (nM): 3981
curve as filed: inhibitor, partial curve

SMILES: O=C(OC1C[C@H]2CC[C@@H](C1)[N+]21CCCC1)C(O)(c1ccccc1)c1ccccc1 (some centres unmarked)
setting: ATS189
potency (nM): 4467
curve as filed: inhibitor, partial curve

SMILES: O=C(OC1C[C@H]2CC[C@@H](C1)[N+]21CCCC1)C(O)(c1ccccc1)c1ccccc1 (some centres unmarked)
setting: CP325
potency (nM): 4256
curve as filed: inhibitor, partial curve

SMILES: O=C(OC1C[C@H]2CC[C@@H](C1)[N+]21CCCC1)C(O)(c1ccccc1)c1ccccc1 (some centres unmarked)
setting: HB3
potency (nM): 3548
curve as filed: inhibitor, full curve

SMILES: O=C(OC1C[C@H]2CC[C@@H](C1)[N+]21CCCC1)C(O)(c1ccccc1)c1ccccc1 (some centres unmarked)
setting: CP315
potency (nM): 7569
curve as filed: inhibitor, partial curve

SMILES: O=C(OC1C[C@H]2CC[C@@H](C1)[N+]21CCCC1)C(O)(c1ccccc1)c1ccccc1 (some centres unmarked)
setting: CP215
potency (nM): 6746
curve as filed: inhibitor, partial curve

SMILES: O=C(OC1C[C@H]2CC[C@@H](C1)[N+]21CCCC1)C(O)(c1ccccc1)c1ccccc1 (some centres unmarked)
setting: DIV14
potency (nM): 5358
curve as filed: inhibitor, partial curve, poor fit

SMILES: O=C(OC1C[C@H]2CC[C@@H](C1)[N+]21CCCC1)C(O)(c1ccccc1)c1ccccc1 (some centres unmarked)
setting: CP217
potency (nM): 3548
curve as filed: inhibitor, full curve

SMILES: O=C(OC1C[C@H]2CC[C@@H](C1)[N+]21CCCC1)C(O)(c1ccccc1)c1ccccc1 (some centres unmarked)
setting: N140
potency (nM): 3548
curve as filed: inhibitor, partial curve

SMILES: O=C(OC1C[C@H]2CC[C@@H](C1)[N+]21CCCC1)C(O)(c1ccccc1)c1ccccc1 (some centres unmarked)
setting: CP268
potency (nM): 5358
curve as filed: inhibitor, partial curve

SMILES: O=C(OC1C[C@H]2CC[C@@H](C1)[N+]21CCCC1)C(O)(c1ccccc1)c1ccccc1 (some centres unmarked)
setting: CP266
potency (nM): 7569
curve as filed: inhibitor, partial curve, poor fit

SMILES: O=C(OC1C[C@H]2CC[C@@H](C1)[N+]21CCCC1)C(O)(c1ccccc1)c1ccccc1 (some centres unmarked)
setting: TAB113
potency (nM): 6310
curve as filed: inhibitor, partial curve

SMILES: O=C(OC1C[C@H]2CC[C@@H](C1)[N+]21CCCC1)C(O)(c1ccccc1)c1ccccc1 (some centres unmarked)
setting: CP203
potency (nM): 4776
curve as filed: inhibitor, partial curve

SMILES: O=C(OC1C[C@H]2CC[C@@H](C1)[N+]21CCCC1)C(O)(c1ccccc1)c1ccccc1 (some centres unmarked)
setting: CP194
potency (nM): 4776
curve as filed: inhibitor, partial curve

SMILES: O=C(OC1C[C@H]2CC[C@@H](C1)[N+]21CCCC1)C(O)(c1ccccc1)c1ccccc1 (some centres unmarked)
setting: CP269
potency (nM): 4256
curve as filed: inhibitor, partial curve

SMILES: O=C(OC1C[C@H]2CC[C@@H](C1)[N+]21CCCC1)C(O)(c1ccccc1)c1ccccc1 (some centres unmarked)
setting: CP297
potency (nM): 4776
curve as filed: inhibitor, partial curve

SMILES: O=C(OC1C[C@H]2CC[C@@H](C1)[N+]21CCCC1)C(O)(c1ccccc1)c1ccccc1 (some centres unmarked)
setting: ICS
potency (nM): 2512
curve as filed: inhibitor, full curve

SMILES: O=C(OC1C[C@H]2CC[C@@H](C1)[N+]21CCCC1)C(O)(c1ccccc1)c1ccccc1 (some centres unmarked)
setting: AS120
potency (nM): 5012
curve as filed: inhibitor, partial curve

SMILES: O=C(OC1C[C@H]2CC[C@@H](C1)[N+]21CCCC1)C(O)(c1ccccc1)c1ccccc1 (some centres unmarked)
setting: DFO2036
potency (nM): 3162
curve as filed: inhibitor, full curve

SMILES: O=C(OC1C[C@H]2CC[C@@H](C1)[N+]21CCCC1)C(O)(c1ccccc1)c1ccccc1 (some centres unmarked)
setting: 3D7
potency (nM): 7080
curve as filed: inhibitor, partial curve

SMILES: O=C(OC1C[C@H]2CC[C@@H](C1)[N+]21CCCC1)C(O)(c1ccccc1)c1ccccc1 (some centres unmarked)
setting: CP191
potency (nM): 3548
curve as filed: inhibitor, full curve

SMILES: O=C(OC1C[C@H]2CC[C@@H](C1)[N+]21CCCC1)C(O)(c1ccccc1)c1ccccc1 (some centres unmarked)
setting: CP201
potency (nM): 5358
curve as filed: inhibitor, partial curve

SMILES: O=C(OC1C[C@H]2CC[C@@H](C1)[N+]21CCCC1)C(O)(c1ccccc1)c1ccccc1 (some centres unmarked)
setting: CP252
potency (nM): 2512
curve as filed: inhibitor, full curve

SMILES: O=C(OC1C[C@H]2CC[C@@H](C1)[N+]21CCCC1)C(O)(c1ccccc1)c1ccccc1 (some centres unmarked)
setting: FAB9
potency (nM): 4467
curve as filed: inhibitor, partial curve

SMILES: O=C(OC1C[C@H]2CC[C@@H](C1)[N+]21CCCC1)C(O)(c1ccccc1)c1ccccc1 (some centres unmarked)
setting: DIV17
potency (nM): 2133
curve as filed: inhibitor, partial curve, poor fit

SMILES: O=C(OC1C[C@H]2CC[C@@H](C1)[N+]21CCCC1)C(O)(c1ccccc1)c1ccccc1 (some centres unmarked)
setting: CP260
potency (nM): 3548
curve as filed: inhibitor, partial curve

SMILES: O=C(OC1C[C@H]2CC[C@@H](C1)[N+]21CCCC1)C(O)(c1ccccc1)c1ccccc1 (some centres unmarked)
setting: CP247
potency (nM): 3162
curve as filed: inhibitor, full curve

For reference, 2 entries once more:

With O=C(OC1C[C@H]2CC[C@@H](C1)[N+]21CCCC1)C(O)(c1ccccc1)c1ccccc1 (some centres unmarked) [ATS189] the assay gave potency 4467 nM (inhibitor, partial curve).
With O=C(OC1C[C@H]2CC[C@@H](C1)[N+]21CCCC1)C(O)(c1ccccc1)c1ccccc1 (some centres unmarked) [CP217] the assay gave potency 3548 nM (inhibitor, full curve).